# Data: the supplement of paper PMC9135407
# Where “and” joins values, the source holds several entries; their conditions need not be identical. Equal entries are not always repeated. Structures can show the parent of a compound that is named as a salt. ± gives the standard deviation of the averaged measurements. This is one part of the list. Plates or batches differ in their baseline, so values are only roughly comparable.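 Culture-activated primary human stellate myofibroblasts, where regained lipid droplets signal inactivation. Value: share of Hoechst-counted cells above a per-plate Bodipy cutoff, in duplicate wells, with DMSO negative and nortriptyline positive controls on each plate. Hits: a control-normalized score above the plate's top-tenth-percentile nortriptyline wells, or one of a plate's three best wells. Final well concentrations are not given.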
# Test system: primary human hepatic stellate cells (donor 1)
# Assay: percent Bodipy-positive cells; higher = more lipid droplet accumulation
# Settings: 48 h
# [1] = library stock concentration: 3.33 mM
# [2] = library stock concentration: 10 mM
# [3] = library stock concentration: 1 mM
# [4] = library stock concentration: 80 uM
# [5] = library stock concentration: 400 uM
# [6] = library stock concentration: 2 mM
compound,measurement,setting,value
O=C(O[C@H]1CN2CCC1CC2)N1CCc2ccccc2[C@@H]1c1ccccc1 [Solifenacin succinate],percent Bodipy-positive cells,[1],37.2 ± 1.5%
O=C(O[C@H]1CN2CCC1CC2)N1CCc2ccccc2[C@@H]1c1ccccc1,percent Bodipy-positive cells,[2],57 ± 2.4%
NC(=O)N/N=C/c1ccc([N+](=O)[O-])o1 [Nitrofurazone],percent Bodipy-positive cells,[2],15.9 ± 7.9%
NC(=O)N/N=C/c1ccc([N+](=O)[O-])o1 [Nitrofural],percent Bodipy-positive cells,,32.5 ± 3.4%
same,percent Bodipy-positive cells,[1],8.02 ± 3%
same,percent Bodipy-positive cells,[2],8.17 ± 1.5%
CCN(CC)CC1CCN(c2ncc3ncnc(Nc4ccc(F)c(Cl)c4)c3n2)CC1.Cl.Cl [BIBU 1361 dihydrochloride],percent Bodipy-positive cells,[2],99 ± 1.4%
CCCCCCCCCCCCCCCCOC[C@H](COP(=O)([O-])OCC[N+](C)(C)C)OC [2-O-methyl PAF C-16],percent Bodipy-positive cells,[3],14 ± 0.75%
COc1ccc(S(=O)(=O)N2c3ccc(Cl)cc3[C@](O)(c3ccccc3Cl)[C@@H]2C(=O)N2CCC[C@H]2C(N)=O)cc1OC,percent Bodipy-positive cells,[2],9.48 ± 0.5%
COc1cc(OC)c(C=C2C(=O)Nc3ccccc32)c(OC)c1,percent Bodipy-positive cells,[1],16.2 ± 4%
same,percent Bodipy-positive cells,[2],30.7 ± 7%
CN1CCCCC1CCN1c2ccccc2Sc2ccc([S+](C)[O-])cc21 (centres undefined) [Mesoridazine],percent Bodipy-positive cells,[2],54.5 ± 19%
CN1CCCCC1CCN1c2ccccc2Sc2ccc([S+](C)[O-])cc21 (centres undefined) [Mesoridazine besylate],percent Bodipy-positive cells,,60.95 ± 0.14%
same,percent Bodipy-positive cells,library stock concentration: 5.2 mM,41.4 ± 5.5%
CC(=O)OCOC(=O)CN(CC(=O)OCOC(C)=O)c1ccccc1OCCOc1ccccc1N(CC(=O)OCOC(C)=O)CC(=O)OCOC(C)=O,percent Bodipy-positive cells,[1],56.5 ± 6.6%
same,percent Bodipy-positive cells,[2],97 ± 4.2%
O=Nc1c(-c2c(O)[nH]c3cc(Br)ccc23)[nH]c2ccccc12,percent Bodipy-positive cells,[4],10.3 ± 2.3%
same,percent Bodipy-positive cells,[5],19.1 ± 2.5%
same,percent Bodipy-positive cells,[6],16.7 ± 5.3%
same,percent Bodipy-positive cells,[1],31.4 ± 9.9%
O=Nc1c(-c2c(O)[nH]c3cc(Br)ccc23)[nH]c2ccccc12 [GSK-3 Inhibitor IX],percent Bodipy-positive cells,[1],19 ± 1.2%
CO[C@@H]1[C@@H](OC(N)=O)[C@@H](O)[C@H](Oc2ccc3c(O)c(NC(=O)c4ccc(O)c(CC=C(C)C)c4)c(=O)oc3c2C)OC1(C)C [Novobiocin sodium],percent Bodipy-positive cells,[2],21 ± 7.4%
CO[C@@H]1[C@@H](OC(N)=O)[C@@H](O)[C@H](Oc2ccc3c(O)c(NC(=O)c4ccc(O)c(CC=C(C)C)c4)c(=O)oc3c2C)OC1(C)C [Novobiocin Sodium],percent Bodipy-positive cells,[1],10.5 ± 1.6%
same,percent Bodipy-positive cells,[2],14.1 ± 0.25%
CO[C@@H]1[C@@H](OC(N)=O)[C@@H](O)[C@H](Oc2ccc3c(O)c(NC(=O)c4ccc(O)c(CC=C(C)C)c4)c(=O)oc3c2C)OC1(C)C [Novobiocin sodium salt],percent Bodipy-positive cells,,8.19 ± 1.2%
CN(C)C/C=C/C(=O)Nc1ccc(C(=O)Nc2cccc(Nc3nccc(-c4cccnc4)n3)c2)cc1,percent Bodipy-positive cells,[2],99.51 ± 0.24%
CCCCC(CC)CN1CCC(n2cc(CNC)nn2)CC1 (centres undefined),percent Bodipy-positive cells,[2],94.33 ± 0.44%
Brc1c(Br)c(Br)c2n[nH]nc2c1Br [Casein Kinase II Inhibitor I],percent Bodipy-positive cells,[1],19 ± 8.8%
CN(NC(=O)CC(=O)NN(C)C(=S)c1ccccc1)C(=S)c1ccccc1 [Elesclomol (STA-4783)],percent Bodipy-positive cells,[1],10.9 ± 4.4%
same,percent Bodipy-positive cells,[2],18 ± 6.1%
CCCCCC(=O)/C=C/[C@H]1[C@H](O)CC(=O)[C@@H]1CCCCCCC(=O)O [15-keto Prostaglandin E1],percent Bodipy-positive cells,[3],17.9 ± 5%
"Nc1nc2c(nc(Br)n2[C@@H]2O[C@@H]3COP(=O)(O)O[C@H]3[C@H]2O)c(=O)[nH]1 [8-Bromo-cGMP, sodium salt]",percent Bodipy-positive cells,[2],6.34 ± 0.065%
CCN1CCN(C(=O)N[C@@H](C(=O)N[C@@H]2C(=O)N3[C@@H]2SC(C)(C)[C@@H]3C(=O)O)c2ccccc2)C(=O)C1=O [Piperacillin sodium salt],percent Bodipy-positive cells,,8.78 ± 2.4%
CCN1CCN(C(=O)N[C@@H](C(=O)N[C@@H]2C(=O)N3[C@@H]2SC(C)(C)[C@@H]3C(=O)O)c2ccccc2)C(=O)C1=O [Piperacillin Sodium],percent Bodipy-positive cells,[1],12.2 ± 1.2%
same,percent Bodipy-positive cells,[2],23.5 ± 9.4%
CCN1CCN(C(=O)N[C@@H](C(=O)N[C@@H]2C(=O)N3[C@@H]2SC(C)(C)[C@@H]3C(=O)O)c2ccccc2)C(=O)C1=O [Piperacillin sodium],percent Bodipy-positive cells,[2],17.9 ± 5%
CCN1CCN(C(=O)N[C@@H](C(=O)N[C@@H]2C(=O)N3[C@@H]2SC(C)(C)[C@@H]3C(=O)O)c2ccccc2)C(=O)C1=O,percent Bodipy-positive cells,[2],30.52 ± 0.27%
CC(=O)Oc1cccc(O)c1 [Resorcinol monoacetate],percent Bodipy-positive cells,[2],25.6 ± 8.4%
same,percent Bodipy-positive cells,library stock concentration: 13.1 mM,11.3 ± 4.4%
CN[C@@H]1C[C@H]2O[C@@](C)([C@@H]1OC)n1c3ccccc3c3c4c(c5c6ccccc6n2c5c31)C(=O)N[C@H]4O,percent Bodipy-positive cells,[1],99.66 ± 0.00071%
O=[N+]([O-])c1ccc2c(c1)S(=O)(=O)C=C2 [Stattic],percent Bodipy-positive cells,[1],100%
"NCCCCCCCCCCN [1,10-Diaminodecane]",percent Bodipy-positive cells,[2],39.32 ± 0.1%
OC[C@H]1O[C@@H](Oc2ccc(O)cc2)[C@H](O)[C@@H](O)[C@@H]1O [Arbutin],percent Bodipy-positive cells,,6.92 ± 1.5%
same,percent Bodipy-positive cells,[1],14 ± 11%
same,percent Bodipy-positive cells,[2],7.85 ± 3.9%
O=C(c1ccc(C(=O)N2CCC(N3CCCC3)CC2)c(Nc2ccccc2)c1)N1CCC(N2CCCC2)CC1,percent Bodipy-positive cells,[4],29.2 ± 5%
same,percent Bodipy-positive cells,[5],29.6 ± 4.9%
same,percent Bodipy-positive cells,[6],43.1 ± 4.8%
same,percent Bodipy-positive cells,[1],14.4 ± 4%
same,percent Bodipy-positive cells,[2],43.8% and 55.2%
O=Nc1ccc(O)c2ncccc12,percent Bodipy-positive cells,[2],20.1 ± 1.6%
Nc1ccc(S(=O)(=O)c2ccc(N)cc2)cc1,percent Bodipy-positive cells,[2],33.9 ± 4.5%
Nc1ccc(S(=O)(=O)c2ccc(N)cc2)cc1 [Dapsone],percent Bodipy-positive cells,,26.2 ± 4%
same,percent Bodipy-positive cells,library stock concentration: 8.1 mM,2.98 ± 0.26%
same,percent Bodipy-positive cells,[2],9.58 ± 1.8%
OCCN1CCN(CCCN2c3ccccc3Sc3ccc(Cl)cc32)CC1 [Perphenazine],percent Bodipy-positive cells,,71.7 ± 4%
same,percent Bodipy-positive cells,library stock concentration: 5 mM,88.8 ± 6.5%
same,percent Bodipy-positive cells,[2],99.51 ± 0.69%
CNCCC(Oc1ccc(C(F)(F)F)cc1)c1ccccc1.Cl (centres undefined) [Fluoxetine],percent Bodipy-positive cells,library stock concentration: 5.8 mM,83.1 ± 1.4%
CN(C)CCc1c[nH]c2ccc(Cn3cncn3)cc12,percent Bodipy-positive cells,[2],5.8 ± 1.4%
CN(C)CCc1c[nH]c2ccc(Cn3cncn3)cc12 [Rizatriptan benzoate],percent Bodipy-positive cells,library stock concentration: 5.1 mM,12.8 ± 4.9%
CN(C)CCc1c[nH]c2ccc(Cn3cncn3)cc12 [Rizatriptan Benzoate],percent Bodipy-positive cells,[1],10.2 ± 2.9%
same,percent Bodipy-positive cells,[2],18 ± 7.3%
CCCCC[C@H](O)/C=C/[C@@H]1[C@@H](C/C=C\CCCC(=O)NC(CO)CO)[C@@H](O)C[C@H]1O [Prostaglandin F2.alpha. serinol amide],percent Bodipy-positive cells,[3],10.9 ± 2.3%
Fc1ccc(-c2nc3n(c2-c2ccncc2)CCS3)cc1,percent Bodipy-positive cells,[1],11.8 ± 1.8%
same,percent Bodipy-positive cells,[2],6.76 ± 1.9%
CCC[C@H](N[C@@H](C)C(=O)N1[C@H](C(=O)O)C[C@@H]2CCCC[C@@H]21)C(=O)OCC [Perindopril],percent Bodipy-positive cells,,8.36 ± 5.6%
CCC[C@H](N[C@@H](C)C(=O)N1[C@H](C(=O)O)C[C@@H]2CCCC[C@@H]21)C(=O)OCC [Perindopril erbumine],percent Bodipy-positive cells,library stock concentration: 4.5 mM,9.54 ± 5.5%
same,percent Bodipy-positive cells,[2],60.7 ± 19%

# Part of the list above, with bars between the fields:
compound | measurement | setting | value
NC(=O)N/N=C/c1ccc([N+](=O)[O-])o1 [Nitrofural] | percent Bodipy-positive cells | [1] | 8.02 ± 3%
CCCCCCCCCCCCCCCCOC[C@H](COP(=O)([O-])OCC[N+](C)(C)C)OC [2-O-methyl PAF C-16] | percent Bodipy-positive cells | [3] | 14 ± 0.75%
COc1ccc(S(=O)(=O)N2c3ccc(Cl)cc3[C@](O)(c3ccccc3Cl)[C@@H]2C(=O)N2CCC[C@H]2C(N)=O)cc1OC | percent Bodipy-positive cells | [2] | 9.48 ± 0.5%
Nc1ccc(S(=O)(=O)c2ccc(N)cc2)cc1 [Dapsone] | percent Bodipy-positive cells | [2] | 9.58 ± 1.8%
